The values that follow come from patent US20210032312A1.

Protein sequences, listed by entry. Tags and fused reporters are not part of them. Residues count along the entry.
UniProt P01732, residues 22-182: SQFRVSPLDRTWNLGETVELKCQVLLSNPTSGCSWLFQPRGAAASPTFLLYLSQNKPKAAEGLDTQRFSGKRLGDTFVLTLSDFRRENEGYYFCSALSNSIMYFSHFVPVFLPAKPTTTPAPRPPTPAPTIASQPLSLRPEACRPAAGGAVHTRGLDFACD

Where a chain is given by its changes, count along the chain named. No constants are given. Whether binding was seen depends on the method and setting. Some binding calls cover weakened binding; strength is not graded here.

B1: P282BR9P1357_A9 (designed binder)
chain: LPAPKNLVVSRVTEDSARLSWKANRTTDLHFDSFLIQYQESEKVGEAIVLTVPGSERSYDLTGLKPGTEYTVSIYGVDVQYDGQQPLYSNPLSAIFTT
B2: P283AR9P1362_A3 (designed binder)
chain: LPAPKNLVVSRVTEDSARLSWKRIDSPFDSFLIQYQESEKVGEAIVLTVPGSERSYDLTGLKPGTEYTVSIYGVDVKYDIDSRPISSNPLSAIFTT
B3: P283AR9P1362_B8 (designed binder)
chain: B2 chain with K22W, R23T, I24S, D25P, S26L
B4: P283AR9P1362_C12 (designed binder)
chain: B2 chain with K22A, R23K, I24N, D25L, S26H, P27S
B5: P283AR9P1362_F12 (designed binder)
chain: B2 chain with K22A, I24N, D25I, S26T, P27S
B6: P283AR9P1362_F2 (designed binder)
chain: B2 chain with K22R, R23K, I24K, S26H
B7: P283AR9P1362_D4 (designed binder)
chain: B2 chain with K22V, I24E, D25H, S26D, P27S
B8: P283AR9P1362_D6 (designed binder)
chain: B2 chain with K22A, R23K, I24R, D25P, S26G, P27A
B9: P283AR9P1362_A4 (designed binder)
chain: B2 chain with K22I, R23G, I24H, P27G
B10: P283AR9P1362_E9 (designed binder)
chain: B2 chain with K22V, R23P, I24S, D25P, S26W, P27G
B11: P283BR9P1363_D11 (designed binder)
chain: LPAPKNLVVSRVTEDSARLSWNKKHDGQPTFDSFLIQYQESEKVGEAIVLTVPGSERSYDLTGLKPGTEYTVSIYGVDVVYEGSYPASSNPLSAIFTT
B12: P282AR9P1356_H6 (designed binder)
chain: LPAPKNLVVSRVTEDSARLSWRKRANSFDSFLIQYQESEKVGEAIVLTVPGSERSYDLTGLKPGTEYTVSIYGVHVEYDQHGRPRWSNPLSAIFTT
B13: P283AR9P1362_D3 (designed binder)
chain: B12 chain with R22P, K23V, R24E, A25S, S27A, H75D
B14: P283AR9P1362_G11 (designed binder)
chain: B2 chain with K22R, R23K, I24E, D25A, S26T, P27S
B15: P283AR9P1362_D7 (designed binder)
chain: B2 chain with K22V, R23K, I24R, D25A, S26T, P27S
B16: P283AR9P1362_F8 (designed binder)
chain: LPAPKNLVVSRVTEDSARLSWGYYHGHFDSFLIQYQESEKVGEAIVLTVPGSERSYDLTGLKPGTEYTVSIYGVDVKWEGNRPVASNPLSAIFTT
B17: P283AR9P1362_B2 (designed binder)
chain: LPAPKNLVVSRVTEDSARLSWAKHPNSFDSFLIQYQESEKVGEAIVLTVPGSERSYDLTGLKPGTEYTVSIYGVDVVVNELNNPLFSNPLSAIFTT
B18: P283BR9P1363_C4 (designed binder)
chain: LPAPKNLVVSRVTEDSARLSWPIVNTPLHFDSFLIQYQESEKVGEAIVLTVPGSERSYDLTGLKPGTEYTVSIYGVDVQYTATGQPERSNPLSAIFTT
B19: P283AR9P1362_C6 (designed binder)
chain: LPAPKNLVVSRVTEDSARLSWYPSDPPFDSFLIQYQESEKVGEAIVLTVPGSERSYDLTGLKPGTEYTVSIYGVPNYHSRRSYYYSNPLSAIFTT
B20: P283AR9P1362_D2 (designed binder)
chain: LPAPKNLVVSRVTEDSARLSWQRPKSGFFDSFLIQYQESEKVGEAIVLTVPGSERSYDLTGLKPGTEYTVSIYGVDVKYDIDSRPISSNPLSAIFTT
B21: P283AR9P1362_H11 (designed binder)
chain: B20 chain with Q22P, R23K, P24I, K25Q, S26G, G27Q, F28H
B22: P282FR9P1361_C7 (designed binder)
chain: LPAPKNLVVSRVTEDSARLSWTAPDAAFDSFGIWYHEYGGDGEAIVLTVPGSERSYDLTGLKPGTEYDVAIWGVKGGDVSYPLSAIFTT
B23: P282FR9P1361_H4 (designed binder)
chain: B22 chain with H36A, G40Y, D41S, W72Y, D78S, V79P
B24: P282FR9P1361_H5 (designed binder)
chain: B22 chain with G32D, H36A, G40Y, D41P, W72S, D78P, V79R
B25: P282FR9P1361_F2 (designed binder)
chain: B22 chain with G32D, H36A, G40Y, D41P, W72S, V74I, D78P, V79R
B26: P282FR9P1361_F3 (designed binder)
chain: B22 chain with G32D, H36A, G40Y, D41P, W72S, V74A, D78P, V79R
B27: P282FR9P1361_D3 (designed binder)
chain: B22 chain with G32D, H36A, G40Y, D41P, K62N, W72S, D78P, V79R
B28: P282FR9P1361_F11 (designed binder)
chain: B22 chain with H36R, D41S, D78V, V79R
B29: P282FR9P1361_F1 (designed binder)
chain: B22 chain with H36A, G40Y, D41S, D78V, V79R
B30: P283AR9P1362_C7 (designed binder)
chain: LPAPKNLVVSRVTEDSARLSWVKRATSFDSFLIQYQESEKVGEAIVLTVPGSERSYDLTGLKPGTEYTVSIYGVDVRYNEGQPIWSNPLSAIFTT
B31: P283AR9P1362_G3 (designed binder)
chain: B16 chain with G22V, Y23K, Y24R, H25A, G26T, H27S
B32: P282FR9P1361_F7 (designed binder)
chain: LPAPKNLVVSRVTEDSARLSWTAPDAAFDSFPIWYREYATGEAIVLTVPGSERSYDLTGLKPGTEYDVVITGVKGGYPSYPLSAIFTT
B33: P283BR9P1363_A8 (designed binder)
chain: LPAPKNLVVSRVTEDSARLSWVRSDTARFFDSFLIQYQESEKVGEAIVLTVPGSERSYDLTGLKPGTEYTVSIYGVDVKYDIDSRPISSNPLSAIFTT
B34: P282FR9P1361_E12 (designed binder)
chain: LPAPKNLVVSRVTEDSARLSWTAPDAAFDSLGITYWESPYAGEAIVLTVPGSERSYDLTGLKPGTEYGVFILGVKGGYPSAPLSAIFTT
B35: P282FR9P1361_G9 (designed binder)
chain: B34 chain with L31F
B36: P283BR9P1363_A10 (designed binder)
chain: LPAPKNLVVSRVTEDSARLSWQRADDILPYFDSFLIQYQESEKVGEAIVLTVPGSERSYDLTGLKPGTEYTVSIYGVDVKYDIDSRPISSNPLSAIFTT
B37: P283BR9P1363_B2 (designed binder)
chain: B36 chain with Q22A, R23S, A24T, D25V, I27P, L28H, Y30R
B38: P283AR9P1362_B10 (designed binder)
chain: LPAPKNLVVSRVTEDSARLSWKRRWDSFDSFLIQYQESEKVGEAIVLTVPGSERSYDLTGLKPGTEYTVSIYGVDVEWFNGLPHHSNPLSAIFTT
B39: P282BR9P1357_B2 (designed binder)
chain: LPAPKNLVVSRVTEDSARLSWNPSEDPQRFDSFLIQYQESEKVGEAIVLTVPGSERSYDLTGLKPGTEYTVSIYGVDVKWEGNRPVASNPLSAIFTT
B40: P283BR9P1363_B6 (designed binder)
chain: LPAPKNLVVSRVTEDSARLSWQRHSDAHPLFDSFLIQYQESEKVGEAIVLTVPGSERSYDLTGLKPGTEYTVSIYGVDVKWEGNRPVASNPLSAIFTT
B41: P283BR9P1363_C8 (designed binder)
chain: B40 chain with Q22A, R23K, H24T, A27L

In this test the target is recombinant human CD8 alpha fused to Fc fragment of human IgG1 (human) (UniProt P01732). The test can be described thus: ELISA, biotinylated CD8W7 or CD8W13. In general terms: An ELISA detects its analyte on a solid surface through an enzyme-linked reagent.
In the case of B1, the binding entry is on record as “binds”.
Next, B2: “binds”; B3: “binds”.
As for B4, the binding entry was “binds”.
Under B5 stands “binds”; under B6, “binds”.
As to B7, the binding result was “binds”.
Under B8 stands “binds”; under B9, “binds”; under B10, “binds”.
In the case of B11, the binding result is given as “binds”.
Turning to B12, the binding entry is recorded as “binds”.
As for B13, the binding entry is listed as “binds”.
Under B14 stands “binds”; under B15, “binds”; under B16, “binds”.
Under B17 stands “binds”; under B18, “binds”; under B19, “binds”.
Regarding B20, the binding entry is reported as “binds”.
As for B21, the binding entry was “binds”.
As to B22, the binding result is “binds”.
For B23, the binding result is listed as “binds”.
Next, B24: “binds”.
Next, B25: “binds”.
Under B26 stands “binds”; under B27, “binds”; under B28, “binds”.
As for B29, the binding result is “binds”.
In the case of B30, the binding entry is “binds”.
Under B31 stands “binds”.
On to B32, for which the binding entry was “binds”.
For the molecule B33, the binding result is listed as “binds”.
Under B34 stands “binds”; under B35, “binds”.
Next, B36: “binds”; B37: “binds”.
Under B38 stands “binds”; under B39, “binds”; under B40, “binds”.
Take B41: the binding entry is given as “binds”.
